Results are given in words; binding and its absence hold for the method and conditions named. Binding seen in cells or lysates may run through a third protein. Some entries that bind do so weakly or less than the wild type. Where a sequence is shown, tags or fusion partners need not be part of it.
Biological target: T1, LHFPL4 (Lipoma HMGIC Fusion Partner-Like 4), endogenous in mouse brain (mouse (endogenous in mouse brain)) (UniProt Q5U4E0)
T1 sequence: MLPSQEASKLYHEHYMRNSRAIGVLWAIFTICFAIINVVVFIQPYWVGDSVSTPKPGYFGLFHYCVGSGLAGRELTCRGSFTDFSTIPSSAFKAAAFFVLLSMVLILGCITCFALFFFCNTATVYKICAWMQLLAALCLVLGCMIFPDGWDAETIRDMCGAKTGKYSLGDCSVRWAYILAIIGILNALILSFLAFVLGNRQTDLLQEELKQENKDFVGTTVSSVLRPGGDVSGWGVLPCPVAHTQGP
Experiment: co-IP; WT and Lhfpl4-/- mouse brain lysates; immunoprecipitation with an anti-LHFPL4 antibody; western blot

By UniProt entry, the sequences of proteins in these tests, tags left out. Residues count along the entry.
UniProt Q69ZK9, residues 15-836: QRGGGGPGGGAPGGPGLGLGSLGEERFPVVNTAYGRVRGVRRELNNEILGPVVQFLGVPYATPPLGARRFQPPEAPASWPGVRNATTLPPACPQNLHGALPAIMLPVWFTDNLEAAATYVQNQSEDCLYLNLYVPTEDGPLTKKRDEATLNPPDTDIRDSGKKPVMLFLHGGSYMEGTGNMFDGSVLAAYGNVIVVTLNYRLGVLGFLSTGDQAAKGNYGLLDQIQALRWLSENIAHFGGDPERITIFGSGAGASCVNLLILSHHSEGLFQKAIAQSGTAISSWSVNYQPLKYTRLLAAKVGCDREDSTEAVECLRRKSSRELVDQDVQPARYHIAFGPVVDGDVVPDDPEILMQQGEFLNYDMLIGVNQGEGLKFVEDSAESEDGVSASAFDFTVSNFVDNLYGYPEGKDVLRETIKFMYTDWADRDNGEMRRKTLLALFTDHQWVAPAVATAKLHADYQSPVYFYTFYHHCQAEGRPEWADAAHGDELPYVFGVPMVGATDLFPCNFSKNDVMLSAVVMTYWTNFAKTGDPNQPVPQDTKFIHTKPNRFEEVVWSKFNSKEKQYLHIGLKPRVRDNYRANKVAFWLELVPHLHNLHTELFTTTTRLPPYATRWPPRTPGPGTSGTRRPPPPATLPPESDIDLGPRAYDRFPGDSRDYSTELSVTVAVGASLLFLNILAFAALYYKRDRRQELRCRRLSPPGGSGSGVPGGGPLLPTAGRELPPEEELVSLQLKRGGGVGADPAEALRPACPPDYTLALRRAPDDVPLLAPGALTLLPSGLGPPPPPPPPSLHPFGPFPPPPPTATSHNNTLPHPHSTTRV

- binding: binds
Substance: neuroligin2, endogenous in mouse brain (from UniProt Q69ZK9 15-836)

— article PMC5640807
